Molecular target: BRD4 (Homo sapiens, UniProt O60885)
Assay: Differential Scanning Fluorimetry (DSF), stability of BRD4 upon ligand binding
Details: 100 μM protein, 4 μM compound and 2% DMSO
Protocol: DSF=Differential Scanning Fluorimetry; provides a measure of the increased stability of BRD4 upon ligand binding The DSF experiment was run at 100 μM protein, 4 μM compound and 2% DMSO.

ΔTm at 4 µM: 0.53 °C
SMILES: CCc1cnn2c(NCc3ccc[n+]([O-])c3)cc(N3CCCC[C@H]3CCO)nc12 [Dinaciclib, reference compound]

Reference: US10526291B2, “Potent dual BRD4-kinase inhibitors as cancer therapeutics” (H. Lee Moffitt Cancer Center and Research Institute, Inc., priority 2014, dated 2020)
